Laboratory results as given in PMC7446834.
Results are given in words; binding and its absence hold for the method and conditions named. Binding seen in cells or lysates may run through a third protein. Some binding calls cover weakened binding; strength is not graded here.

Amino acid sequences for entries named in this document (tags omitted).
UniProt P45983: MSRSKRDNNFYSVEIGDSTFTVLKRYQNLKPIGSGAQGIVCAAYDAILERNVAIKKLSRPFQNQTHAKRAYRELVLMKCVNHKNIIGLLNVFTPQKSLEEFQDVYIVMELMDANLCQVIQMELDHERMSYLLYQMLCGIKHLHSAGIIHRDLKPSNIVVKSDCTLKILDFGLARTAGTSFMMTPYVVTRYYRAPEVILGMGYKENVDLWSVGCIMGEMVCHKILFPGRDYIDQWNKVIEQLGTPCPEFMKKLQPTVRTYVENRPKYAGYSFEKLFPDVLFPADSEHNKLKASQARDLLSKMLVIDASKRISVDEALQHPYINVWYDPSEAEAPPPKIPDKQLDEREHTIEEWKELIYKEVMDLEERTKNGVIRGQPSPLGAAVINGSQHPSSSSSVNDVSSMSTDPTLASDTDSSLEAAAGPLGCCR

Tests used:
[1] = biological target: c-Jun N-terminal kinase 2 (JNK2, of JNK1/2) (human (endogenous in HUVECs)) (UniProt P45984); assay: co-IP; endogenous proteins in lysates of HUVECs transduced with lentiviral vIRF1 or control pHAGE; JNK1/2 immunoprecipitated; IP lysis/wash buffer with protein inhibitor cocktail; beads washed, eluted, Western blot
[2] = biological target: c-Jun N-terminal kinase 1 (JNK1, of JNK1/2) (human (endogenous in HUVECs)) (UniProt P45983); assay: as above

binding [1]	binding [2]	Binder
binds	binds	Mitogen-activated protein kinase kinase 4 (MKK4) (enzyme, UniProt P45985 1-399) MAAPSPSGGGGSGGGSGSGTPGPVGSPAPGHPAVSSMQGKRKALKLNFANPPFKSTARFTLNPNPTGVQNPHIERLRTHSIESSGKLKISPEQHWDFTAEDLKDLGEIGRGAYGSVNKMVHKPSGQIMAVKRIRSTVDEKEQKQLLMDLDVVMRSSDCPYIVQFYGALFREGDCWICMELMSTSFDKFYKYVYSVLDDVIPEEILGKITLATVKALNHLKENLKIIHRDIKPSNILLDRSGNIKLCDFGISGQLVDSIAKTRDAGCRPYMAPERIDPSASRQGYDVRSDVWSLGITLYELATGRFPYPKWNSVFDQLTQVVKGDPPQLSNSEEREFSPSFINFVNLCLTKDESKRPKYKELLKHPFILMYEERAVEVACYVCKILDQMPATPSSPMYVD
binds	binds	Sperm associated antigen 9 (SPAG9) (protein, UniProt O60271 1-1321) MELEDGVVYQEEPGGSGAVMSERVSGLAGSIYREFERLIGRYDEEVVKELMPLVVAVLENLDSVFAQDQEHQVELELLRDDNEQLITQYEREKALRKHAEEKFIEFEDSQEQEKKDLQTRVESLESQTRQLELKAKNYADQISRLEEREAELKKEYNALHQRHTEMIHNYMEHLERTKLHQLSGSDQLESTAHSRIRKERPISLGIFPLPAGDGLLTPDAQKGGETPGSEQWKFQELSQPRSHTSLKVSNSPEPQKAVEQEDELSDVSQGGSKATTPASTANSDVATIPTDTPLKEENEGFVKVTDAPNKSEISKHIEVQVAQETRNVSTGSAENEEKSEVQAIIESTPELDMDKDLSGYKGSSTPTKGIENKAFDRNTESLFEELSSAGSGLIGDVDEGADLLGMGREVENLILENTQLLETKNALNIVKNDLIAKVDELTCEKDVLQGELEAVKQAKLKLEEKNRELEEELRKARAEAEDARQKAKDDDDSDIPTAQRKRFTRVEMARVLMERNQYKERLMELQEAVRWTEMIRASRENPAMQEKKRSSIWQFFSRLFSSSSNTTKKPEPPVNLKYNAPTSHVTPSVKKRSSTLSQLPGDKSKAFDFLSEETEASLASRREQKREQYRQVKAHVQKEDGRVQAFGWSLPQKYKQVTNGQGENKMKNLPVPVYLRPLDEKDTSMKLWCAVGVNLSGGKTRDGGSVVGASVFYKDVAGLDTEGSKQRSASQSSLDKLDQELKEQQKELKNQEELSSLVWICTSTHSATKVLIIDAVQPGNILDSFTVCNSHVLCIASVPGARETDYPAGEDLSESGQVDKASLCGSMTSNSSAETDSLLGGITVVGCSAEGVTGAATSPSTNGASPVMDKPPEMEAENSEVDENVPTAEEATEATEGNAGSAEDTVDISQTGVYTEHVFTDPLGVQIPEDLSPVYQSSNDSDAYKDQISVLPNEQDLVREEAQKMSSLLPTMWLGAQNGCLYVHSSVAQWRKCLHSIKLKDSILSIVHVKGIVLVALADGTLAIFHRGVDGQWDLSNYHLLDLGRPHHSIRCMTVVHDKVWCGYRNKIYVVQPKAMKIEKSFDAHPRKESQVRQLAWVGDGVWVSIRLDSTLRLYHAHTYQHLQDVDIEPYVSKMLGTGKLGFSFVRITALMVSCNRLWVGTGNGVIISIPLTETNKTSGVPGNRPGSVIRVYGDENSDKVTPGTFIPYCSMAHAQLCFHGHRDAVKFFVAVPGQVISPQSSSSGTDLTGDKAGPSAQEPGSQTPLKSMLVISGGEGYIDFRMGDEGGESELLGEDLPLEPSVTKAERSHLIVWQVMYGNE
